We go through five molecules from patent US20050233413A1, “Neuroprotective polypeptides and methods of use” (priority 2002, published 2005).

Results are given in words; binding and its absence hold for the method and conditions named. Binding seen in cells or lysates may run through a third protein. Some entries that bind do so weakly or less than the wild type. Tags and fused reporters may be left off the sequences shown.

For assay [1], the target named is T1, (His)6-HN.
T1 sequence (peptide): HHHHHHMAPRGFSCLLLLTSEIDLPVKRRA
Kind of assay: competition in Ni-bead pull-down; competitor of HN-FLAG.

Assay [2] concerns the target T2, (His)6-EFLIVIKS-(S7A)HN.
T2 sequence (peptide): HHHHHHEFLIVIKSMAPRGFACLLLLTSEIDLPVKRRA
Kind of assay: Ni-bead pull-down, anti-FLAG immunoblot. (In general: In western blotting, separated proteins are transferred to a membrane and probed.)

The target of assay [3] is T2, (His)6-EFLIVIKS-(S7A)HN. The assay is described as follows: Ni-bead pull-down of distinctly tagged peptides.
Assay [4] concerns the target T2, (His)6-EFLIVIKS-(S7A)HN. The assay is described as follows: competition in Ni-bead pull-down; competitor of EF-(S7A)HN-FLAG.
For assay [5], the target named is T1, (His)6-HN. The assay is described as follows: Ni-bead pull-down, anti-FLAG immunoblot.
In assay [6] the target is T1, (His)6-HN. Kind of assay: Ni-bead pull-down of distinctly tagged peptides.

As to MAPRGFSCLLLLTGEIDLPVKRRA [(S14G)HN], the binding entry in assay [1] is “binds”.

EFLIVIKSMAPRGFACLLLLTSEIDLPVKRRADYKDDDDK [EFLIVIKS-(S7A)HN-DYKDDDDK (EF-S7A-FLAG)]: the binding result in assay [2] and in assay [3] was “binds” throughout.

For the molecule MAPRGFSCLLLLTSEIDLPVKRRA [Humanin (HN), tag-free], the binding entry in assay [1] was “binds”.

Take EFLIVIKS: the binding result in assay [4] is listed as “binds”.

Consider MAPRGFSCLLLLTSEIDLPVKRRADYKDDDDK [HN-DYKDDDDK (HNFLAG)], for which the binding result in assay [5] and in assay [6] was “binds” each time.
